Data as given in the supplement of paper PMC4604168 (melanoma cell lines).
This is one part of the list. Repeats are few or missing, and single values can be far off.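 Cells were imaged in 1,536-well plates, and nuclei stained with an antibody against cleaved PARP were counted against all DNA-stained nuclei to give the apoptosis fraction. Screening doses were chosen to leave most cells alive, and resting and induced cleaved-PARP levels differ strongly between cell lines.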

The molecules below were run on CBRC013 (line from a melanoma biopsy) (assay: cleaved PARP positive nuclei fraction relative to DMSO control; melanoma cells; higher = more apoptosis). Conditions: library dose: low library concentration; 72 h.

Structure (SMILES)	cleaved PARP positive nuclei fraction [%]
COc1ccc2c(c1)CCC1C2CCC2(C)C(NCCCCCCN3C(=O)C=CC3=O)CCC12 (configuration not stated) + CC(C)CCN1c2nc(Nc3cc(F)c(O)c(F)c3)ncc2N(C)C(=O)C1C [BID1870] (first compound 0.4 µM, partner dose 0.2 µM)	66.4
O=C1NC(=O)/C(=C/c2ccc(-c3ccc(F)cc3O)o2)S1 + c1cc(-c2cnn3cc(-c4ccc(OCCN5CCCCC5)cc4)cnc23)ccn1 [Dorsomorphin] (first compound 1 µM, partner dose 0.4 µM)	96.3
O=C(O)C(=O)Nc1sc2c(c1C(=O)O)CCNC2 + Oc1nc(-c2ccc(C(F)(F)F)cc2)nc2c1CSCC2 [XAV939] (first compound 1.66667 µM, partner dose 2 µM)	34.2
Oc1cc(-c2nc(-c3ccccc3)[nH]c2-c2ccncc2)ccc1Cl + Cc1cc([N+](=O)[O-])ccc1NS(=O)(=O)c1cc(Cl)ccc1Cl [FH535] (first compound 0.2 µM, partner dose 1 µM)	356
CN(C)S(=O)(=O)c1ccc2c(c1)/C(=C/c1cc3c([nH]1)CCCC3)C(=O)N2 + O=S(=O)(c1ccccc1)N(CC(F)(F)F)c1ccc(C(O)(C(F)(F)F)C(F)(F)F)cc1 [T0901317] (first compound 0.4 µM, partner dose 1.4 µM)	67.4
N#Cc1c(O)c2c(-c3ccc(-c4ccccc4O)cc3)csc2[nH]c1=O + O=C(O)C(=O)Nc1sc2c(c1C(=O)O)CCNC2 [TCS401] (first compound 2 µM, partner dose 1.66667 µM)	311
O=C1NC(=O)/C(=C/c2ccc(-c3ccc(F)cc3O)o2)S1 + Oc1nc(-c2ccc(C(F)(F)F)cc2)nc2c1CSCC2 [XAV939] (first compound 1 µM, partner dose 2 µM)	199
